Laboratory results taken from publication PMC5365316.

Chains of the proteins cited; added tags and fusions are not shown. Lines headed by an entry give the natural chain unless they say otherwise; changes in a name come on top. Residues count along the entry.
UniProt Q8IC42: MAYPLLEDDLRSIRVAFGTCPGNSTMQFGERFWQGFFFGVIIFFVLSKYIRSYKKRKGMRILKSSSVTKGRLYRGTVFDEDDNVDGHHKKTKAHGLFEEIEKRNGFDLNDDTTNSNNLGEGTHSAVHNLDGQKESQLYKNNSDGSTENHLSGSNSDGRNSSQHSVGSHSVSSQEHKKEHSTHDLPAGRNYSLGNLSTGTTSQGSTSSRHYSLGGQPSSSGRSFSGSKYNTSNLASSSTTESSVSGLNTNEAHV
UniProt O77310, residues 25-1417: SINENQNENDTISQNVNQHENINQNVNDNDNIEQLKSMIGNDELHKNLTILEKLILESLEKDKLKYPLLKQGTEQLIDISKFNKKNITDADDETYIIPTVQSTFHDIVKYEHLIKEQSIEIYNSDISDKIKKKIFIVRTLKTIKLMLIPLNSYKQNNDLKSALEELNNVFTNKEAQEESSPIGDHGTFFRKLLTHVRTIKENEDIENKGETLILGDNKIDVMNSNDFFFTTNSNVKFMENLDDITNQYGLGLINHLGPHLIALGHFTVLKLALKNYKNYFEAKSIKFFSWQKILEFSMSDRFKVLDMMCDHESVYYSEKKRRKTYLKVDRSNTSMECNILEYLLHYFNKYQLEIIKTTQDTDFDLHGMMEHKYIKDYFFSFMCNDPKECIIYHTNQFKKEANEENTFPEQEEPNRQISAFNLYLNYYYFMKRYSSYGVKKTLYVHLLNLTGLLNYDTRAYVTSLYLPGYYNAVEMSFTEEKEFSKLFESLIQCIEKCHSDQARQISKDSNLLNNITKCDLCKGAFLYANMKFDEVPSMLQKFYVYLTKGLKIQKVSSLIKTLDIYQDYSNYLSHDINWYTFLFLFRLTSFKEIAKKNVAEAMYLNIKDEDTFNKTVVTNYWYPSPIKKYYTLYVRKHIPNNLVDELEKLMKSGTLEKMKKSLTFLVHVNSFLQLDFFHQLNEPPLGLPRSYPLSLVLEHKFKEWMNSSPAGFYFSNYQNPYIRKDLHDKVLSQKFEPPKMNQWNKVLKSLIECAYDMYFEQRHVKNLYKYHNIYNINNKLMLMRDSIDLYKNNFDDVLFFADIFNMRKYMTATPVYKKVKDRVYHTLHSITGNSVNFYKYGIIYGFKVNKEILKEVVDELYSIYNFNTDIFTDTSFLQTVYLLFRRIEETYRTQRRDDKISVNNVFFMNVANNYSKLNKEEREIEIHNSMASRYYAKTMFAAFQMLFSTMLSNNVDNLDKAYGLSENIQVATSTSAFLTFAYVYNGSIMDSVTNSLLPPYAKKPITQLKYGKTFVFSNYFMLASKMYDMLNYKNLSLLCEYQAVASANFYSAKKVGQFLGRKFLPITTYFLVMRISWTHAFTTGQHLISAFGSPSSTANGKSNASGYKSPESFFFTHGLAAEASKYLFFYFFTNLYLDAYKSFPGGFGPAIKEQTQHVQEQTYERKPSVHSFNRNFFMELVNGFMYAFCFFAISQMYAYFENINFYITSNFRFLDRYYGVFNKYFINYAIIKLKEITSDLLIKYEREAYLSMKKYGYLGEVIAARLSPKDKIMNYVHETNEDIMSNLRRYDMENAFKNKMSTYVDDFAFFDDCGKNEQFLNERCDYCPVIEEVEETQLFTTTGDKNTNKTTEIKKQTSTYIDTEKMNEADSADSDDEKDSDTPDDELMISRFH
UniProt P02730: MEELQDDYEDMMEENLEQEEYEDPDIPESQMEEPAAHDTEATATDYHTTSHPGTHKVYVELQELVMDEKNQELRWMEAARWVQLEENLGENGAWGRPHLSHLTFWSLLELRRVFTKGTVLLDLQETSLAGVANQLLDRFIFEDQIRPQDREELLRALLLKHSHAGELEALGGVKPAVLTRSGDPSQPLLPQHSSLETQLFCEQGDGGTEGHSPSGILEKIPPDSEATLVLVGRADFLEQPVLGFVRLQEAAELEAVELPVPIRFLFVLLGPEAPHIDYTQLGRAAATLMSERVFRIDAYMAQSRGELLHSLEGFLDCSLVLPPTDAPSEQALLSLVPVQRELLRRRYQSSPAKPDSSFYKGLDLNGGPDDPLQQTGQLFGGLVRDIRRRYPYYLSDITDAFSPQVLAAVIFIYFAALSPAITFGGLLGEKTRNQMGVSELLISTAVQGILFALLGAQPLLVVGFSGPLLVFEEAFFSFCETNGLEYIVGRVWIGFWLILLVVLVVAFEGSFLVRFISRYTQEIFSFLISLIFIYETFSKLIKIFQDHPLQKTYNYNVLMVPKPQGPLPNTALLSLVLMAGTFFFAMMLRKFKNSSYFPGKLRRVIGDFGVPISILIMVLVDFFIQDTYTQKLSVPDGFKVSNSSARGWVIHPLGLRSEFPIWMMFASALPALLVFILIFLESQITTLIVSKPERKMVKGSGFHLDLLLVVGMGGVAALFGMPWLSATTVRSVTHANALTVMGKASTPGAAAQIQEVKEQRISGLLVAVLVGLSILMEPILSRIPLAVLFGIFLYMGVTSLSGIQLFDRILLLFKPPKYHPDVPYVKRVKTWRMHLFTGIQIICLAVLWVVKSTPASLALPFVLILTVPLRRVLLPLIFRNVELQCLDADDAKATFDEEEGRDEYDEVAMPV
UniProt P13830: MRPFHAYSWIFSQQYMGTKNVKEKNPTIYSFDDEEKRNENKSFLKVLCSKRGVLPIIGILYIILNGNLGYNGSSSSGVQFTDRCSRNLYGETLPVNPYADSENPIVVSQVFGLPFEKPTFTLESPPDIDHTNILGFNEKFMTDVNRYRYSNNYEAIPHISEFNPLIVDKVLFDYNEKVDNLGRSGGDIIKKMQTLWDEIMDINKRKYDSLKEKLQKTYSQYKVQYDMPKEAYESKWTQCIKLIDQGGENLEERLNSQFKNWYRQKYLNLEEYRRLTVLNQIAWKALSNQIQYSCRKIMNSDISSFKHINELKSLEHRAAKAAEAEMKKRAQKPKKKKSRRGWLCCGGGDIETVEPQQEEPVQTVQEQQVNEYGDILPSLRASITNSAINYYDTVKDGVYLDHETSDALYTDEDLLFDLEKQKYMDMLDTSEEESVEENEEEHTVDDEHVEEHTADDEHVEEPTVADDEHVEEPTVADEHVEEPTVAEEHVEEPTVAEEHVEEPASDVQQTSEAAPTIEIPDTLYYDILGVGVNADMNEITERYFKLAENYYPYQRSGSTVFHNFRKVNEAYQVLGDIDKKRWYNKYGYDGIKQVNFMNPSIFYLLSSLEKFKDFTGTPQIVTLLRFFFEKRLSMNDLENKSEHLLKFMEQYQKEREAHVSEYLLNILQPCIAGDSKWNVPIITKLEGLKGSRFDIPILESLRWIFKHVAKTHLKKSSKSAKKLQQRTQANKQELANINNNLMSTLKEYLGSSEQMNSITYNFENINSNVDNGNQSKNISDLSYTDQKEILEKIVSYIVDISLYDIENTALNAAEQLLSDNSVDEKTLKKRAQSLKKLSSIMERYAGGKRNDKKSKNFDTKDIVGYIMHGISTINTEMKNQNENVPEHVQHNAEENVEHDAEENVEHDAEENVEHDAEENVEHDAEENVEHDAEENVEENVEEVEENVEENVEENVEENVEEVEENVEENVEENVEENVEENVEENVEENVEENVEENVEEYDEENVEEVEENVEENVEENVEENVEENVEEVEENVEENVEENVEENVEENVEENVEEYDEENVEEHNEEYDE

Biological target: T1, RhopH2-HA (P. falciparum RhopH2 with a triple hemagglutinin and single strep II tag at the C-terminus) (P. falciparum) (UniProt C0H571)
T1 sequence: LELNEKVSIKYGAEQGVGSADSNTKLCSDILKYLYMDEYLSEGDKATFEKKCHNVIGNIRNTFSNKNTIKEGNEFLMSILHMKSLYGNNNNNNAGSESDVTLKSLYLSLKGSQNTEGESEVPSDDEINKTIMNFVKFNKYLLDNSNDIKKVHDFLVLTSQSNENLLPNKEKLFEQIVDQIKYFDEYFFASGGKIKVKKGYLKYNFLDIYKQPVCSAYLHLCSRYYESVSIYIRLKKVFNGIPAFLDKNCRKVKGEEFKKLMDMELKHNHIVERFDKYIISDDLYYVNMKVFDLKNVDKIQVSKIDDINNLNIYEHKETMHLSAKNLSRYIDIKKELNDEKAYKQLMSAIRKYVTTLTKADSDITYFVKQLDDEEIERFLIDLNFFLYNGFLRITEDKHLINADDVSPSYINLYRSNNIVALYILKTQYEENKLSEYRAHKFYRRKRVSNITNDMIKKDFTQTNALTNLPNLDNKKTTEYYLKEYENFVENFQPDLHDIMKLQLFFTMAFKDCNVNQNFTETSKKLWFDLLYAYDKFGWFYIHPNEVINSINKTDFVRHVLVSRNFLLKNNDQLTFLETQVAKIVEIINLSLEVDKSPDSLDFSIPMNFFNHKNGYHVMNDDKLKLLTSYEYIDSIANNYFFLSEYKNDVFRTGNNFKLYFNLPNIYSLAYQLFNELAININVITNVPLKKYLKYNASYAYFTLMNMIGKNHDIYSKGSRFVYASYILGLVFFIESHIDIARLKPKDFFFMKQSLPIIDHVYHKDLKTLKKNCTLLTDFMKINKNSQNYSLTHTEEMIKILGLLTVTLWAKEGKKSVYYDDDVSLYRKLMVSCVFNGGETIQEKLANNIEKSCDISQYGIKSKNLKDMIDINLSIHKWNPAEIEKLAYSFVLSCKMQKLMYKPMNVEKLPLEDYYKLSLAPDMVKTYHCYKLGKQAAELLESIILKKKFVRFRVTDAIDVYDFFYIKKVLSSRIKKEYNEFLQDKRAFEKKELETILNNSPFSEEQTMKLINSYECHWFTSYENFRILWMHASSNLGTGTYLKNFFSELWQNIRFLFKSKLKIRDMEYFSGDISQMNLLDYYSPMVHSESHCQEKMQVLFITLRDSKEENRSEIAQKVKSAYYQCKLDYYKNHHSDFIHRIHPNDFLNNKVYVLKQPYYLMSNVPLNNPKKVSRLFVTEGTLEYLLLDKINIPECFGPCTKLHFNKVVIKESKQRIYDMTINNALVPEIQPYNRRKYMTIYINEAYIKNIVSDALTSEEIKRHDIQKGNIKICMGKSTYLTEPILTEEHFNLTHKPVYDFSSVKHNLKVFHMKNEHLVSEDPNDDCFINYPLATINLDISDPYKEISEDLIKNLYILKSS
Assay: affinity purification with mass spectrometry

Molecule | binding
HSP70-x | binds
PHIST protein PF3D7_0532300 | binds
PHIST protein PF3D7_0702500 (from UniProt Q8IC42) | binds
RhopH1/Clag3.1 (from UniProt O77310 25-1417) | binds
RhopH1/Clag9 | binds
ankyrin (human (endogenous in erythrocytes)) | binds
band 3 (from UniProt P02730 1-911) | binds
glycophorin-binding protein 130 (GBP130) | binds
protein 4.1 (from UniProt P11171-4) | binds
ring erythrocyte surface antigen (RESA) (from UniProt P13830) | binds
small exported membrane protein 1 (SEMP1) | binds
spectrin (human (endogenous in erythrocytes)) (complex) | binds
tubulin (human (endogenous in erythrocytes)) | binds
RhopH3 (protein, UniProt Q8I395 25-897) KDVFAGFVTKKLKTLLDCNFALYYNFKGNGPDAGSFLDFVDEPEQFYWFVEHFLSVKFRVPKHLKDKNIHNFTPCLNRSWVSEFLKEYEEPFVNPVMKFLDKEQRLFFTYNFGDVEPQGKYTYFPVKEFHKYCILPPLIKTNIKDGESGEFLKYQLNKEEYKVFLSSVGSQMTAIKNLYSTVEDEQRKQLLKVIIENESTNDISVQCPTYNIKLHYTKECANSNNILKCIDEFLRKTCEKKTESKHPSADLCEHLQFLFESLKNPYLDNFKKFMTNSDFTLIKPQSVWNVPIFDIYKPKNYLDSVQNLDTECFKKLNSKNLIFLSFHDDIPNNPYYNVELQEIVKLSTYTYSIFDKLYNFFFVFKKSGAPISPVSVKELSHNITDFSFKEDNSEIQCQNVRKSLDLEVDVETMKGIAAEKLCKIIEKFILTKDDASKPEKSDIHRGFRILCILISTHVEAYNIVRQLLNMESMISLTRYTSLYIHKFFKSVTLLKGNFLYKNNKAIRYSRACSKASLHVPSVLYRRNIYIPETFLSLYLGLSNLVSSNPSSPFFEYAIIEFLVTYYNKGSEKFVLYFISIISVLYINEYYYEQLSCFYPKEFELIKSRMIHPNIVDRILKGIDNLMKSTRYDKMRTMYLDFESSDIFSREKVFTALYNFDSFIKTNEQLKKKNLEEISEIPVQLETSNDGIGYRKQDVLYETDKPQTMDEASYEETVDEDAHHVNEKQHSAHFLDAIAEKDILEEKTKDQDLEIELYKYMGPLKEQSKSTSAASTSDEISGSEGPSTESTSTGNQGEDKTTDNTYKEMEELEEAEGTSNLKKGLEFYKSSLKLDQLDKEKPKKKKSKRKKKRDSSSDRILLEESKTFTSENEL | binds

No constants are given. Whether binding was seen depends on the method and setting. Binding seen in cells or lysates may run through a third protein. Here binding means that the protein was enriched with, or labelled near, the bait; the list need not be complete. Where a sequence is shown, tags or fusion partners need not be part of it.
